Source: PMC11141627
These are yes or no findings as the source states them, for the method shown.

Target: Human PABPC1 (as PABPC1-A24) (human), P11940
Test: condition: PABPC1-A24 (8.9 μM) titrated with RNH1 (89 μM); ITC; PABPC1-A24 (8.9 uM) titrated with RNH1 (89 uM); MicroCal PEAQ-ITC; 10 mM Na2HPO4 pH 7.4, 1.8 mM KH2PO4, 137 mM NaCl, 2.7 mM KCl; 25 C; both purified
Settings: remark: other sources report otherwise

B1: full-length recombinant RNH1 protein, P13489 1-461 (protein)
chain: MSLDIQSLDIQCEELSDARWAELLPLLQQCQVVRLDDCGLTEARCKDISSALRVNPALAELNLRSNELGDVGVHCVLQGLQTPSCKIQKLSLQNCCLTGAGCGVLSSTLRTLPTLQELHLSDNLLGDAGLQLLCEGLLDPQCRLEKLQLEYCSLSAASCEPLASVLRAKPDFKELTVSNNDINEAGVRVLCQGLKDSPCQLEALKLESCGVTSDNCRDLCGIVASKASLRELALGSNKLGDVGMAELCPGLLHPSSRLRTLWIWECGITAKGCGDLCRVLRAKESLKELSLAGNELGDEGARLLCETLLEPGCQLESLWVKSCSFTAACCSHFSSVLAQNRFLLELQISNNRLEDAGVRELCQGLGQPGSVLRVLWLADCDVSDSSCSSLAATLLANHSLRELDLSNNCLGDAGILQLVESVRQPGCLLEQLVLYDIYWSEEMEDRLQALEKDKPSLRVIS
For B1, the binding was “no binding”.
